Source: PubChem BioAssay AID1159597 (NIAID, 2016)

Aim: 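Role of canonical TLR signalling genes in the human macrophage LPS response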
Cells: human THP-1 B5 reporter clone (monocytic leukaemia line), PMA-differentiated to macrophage-like cells
Reagents: single siRNA against human genes
Duration: LPS for 4 h before read-out; assayed 48 to 72 h after siRNA transfection
Conditions: LPS (Salmonella minnesota R595) for 4 h; concentration not given
Detection: 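TNF promoter dual luciferase ratio after 4 h LPS, given as a per-plate robust z-score, mean of replicates per siRNA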
Reading the numbers: TNF reporter z-score: higher = stronger TNF promoter activity after LPS
Hit rule: In these data the active calls have TNF reporter z-score, replicate mean at about -1.5 or lower, or at about 1.53 or higher
Calls: active = clear shift in reporter, either direction; inactive = little shift in reporter
Shown is one part, drawn at random, of 756 reagents. Of all reagents, 140 (19%) are marked active. 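Calls mark clear shifts in either direction, lowered or raised; calls are per siRNA, gene-level medians over six siRNAs not deposited.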 A number with no mark means an inactive call. The numbers tell different reagents against one gene apart. Not stated in the record: the amount of reagent.

no.	Gene	siRNA no.	TNF reporter z-score, replicate mean
1	LY86 (lymphocyte antigen 86)	1	-0.438
2	LY86 (lymphocyte antigen 86)	2	-1.42
3	LY86 (lymphocyte antigen 86)	3	-0.551
4	LY86 (lymphocyte antigen 86)	4	-1.21
5	LY86 (lymphocyte antigen 86)	5	-0.658
6	LY86 (lymphocyte antigen 86)	6	-0.193
7	IRF3 (interferon regulatory factor 3)	1	0.816
8	IRF3 (interferon regulatory factor 3)	2	-1.4
9	IRF3 (interferon regulatory factor 3)	3	-1.38
10	IRF3 (interferon regulatory factor 3)	4	1.96 (active)
11	IRF3 (interferon regulatory factor 3)	5	-2.98 (active)
12	IRF3 (interferon regulatory factor 3)	6	-1.13
13	MYD88 (MYD88 innate immune signal transduction adaptor)	1	-5.08 (active)
14	MYD88 (MYD88 innate immune signal transduction adaptor)	2	-1.66 (active)
15	MYD88 (MYD88 innate immune signal transduction adaptor)	3	-2.93 (active)
16	MYD88 (MYD88 innate immune signal transduction adaptor)	4	-2.24 (active)
17	MYD88 (MYD88 innate immune signal transduction adaptor)	5	0.564
18	MYD88 (MYD88 innate immune signal transduction adaptor)	6	-1.07
19	MAP2K6 (mitogen-activated protein kinase kinase 6)	1	-0.0597
20	MAP2K6 (mitogen-activated protein kinase kinase 6)	2	0.261
21	MAP2K6 (mitogen-activated protein kinase kinase 6)	3	-0.626
22	MAP2K6 (mitogen-activated protein kinase kinase 6)	4	-0.144
23	MAP2K6 (mitogen-activated protein kinase kinase 6)	5	0.0915
24	MAP2K6 (mitogen-activated protein kinase kinase 6)	6	0.0901
25	DUSP2 (dual specificity phosphatase 2)	1	-0.521
26	DUSP2 (dual specificity phosphatase 2)	2	0.0288
27	DUSP2 (dual specificity phosphatase 2)	3	-3.52 (active)
28	DUSP2 (dual specificity phosphatase 2)	4	-0.115
29	DUSP2 (dual specificity phosphatase 2)	5	-0.196
30	DUSP2 (dual specificity phosphatase 2)	6	-0.276
31	LY96 (lymphocyte antigen 96)	1	-0.0226
32	LY96 (lymphocyte antigen 96)	2	-1.25
33	LY96 (lymphocyte antigen 96)	3	-1.44
34	LY96 (lymphocyte antigen 96)	4	-1.53 (active)
35	LY96 (lymphocyte antigen 96)	5	-0.253
36	LY96 (lymphocyte antigen 96)	6	-1.84 (active)
37	MAP2K3 (mitogen-activated protein kinase kinase 3)	1	0.451
38	MAP2K3 (mitogen-activated protein kinase kinase 3)	2	-0.853
39	MAP2K3 (mitogen-activated protein kinase kinase 3)	3	-1.39
40	MAP2K3 (mitogen-activated protein kinase kinase 3)	4	-1.28
41	MAP2K3 (mitogen-activated protein kinase kinase 3)	5	-0.444
42	MAP2K3 (mitogen-activated protein kinase kinase 3)	6	-3.33 (active)
43	CHUK	1	0.036
44	CHUK	2	-2.08 (active)
45	CHUK	3	0.0257
46	CHUK	4	-0.224
47	CHUK	5	-1.07
48	CHUK	6	0.441

Laid out differently: entries from further up.
MYD88 (MYD88 innate immune signal transduction adaptor) #3: TNF reporter z-score, replicate mean = -2.93 (active)
MYD88 (MYD88 innate immune signal transduction adaptor) #4: TNF reporter z-score, replicate mean = -2.24 (active)
MYD88 (MYD88 innate immune signal transduction adaptor) #5: TNF reporter z-score, replicate mean = 0.564
MYD88 (MYD88 innate immune signal transduction adaptor) #6: TNF reporter z-score, replicate mean = -1.07
MAP2K6 (mitogen-activated protein kinase kinase 6) #1: TNF reporter z-score, replicate mean = -0.0597
MAP2K6 (mitogen-activated protein kinase kinase 6) #2: TNF reporter z-score, replicate mean = 0.261
